## Library screen at single concentrations

Data taken from ChEMBL document CHEMBL3988442, “University of Dundee, Small-Polar-MMV Screening Library” (2021).

Mtb glucose medium: 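Whole-cell growth test on Mycobacterium tuberculosis, read after 3 days in glucose-containing 7H9 medium; the read-out is not stated. Tested at 50 µM. Direction is inferred from retests: higher values go with more growth inhibition. Of about 69,000 compounds tested this way, about 760 (1.1%) reached 50% or more in at least one test.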
Mtb cholesterol medium: 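Whole-cell growth test on Mycobacterium tuberculosis, read after 4 days in a medium based on cholesterol and the lipid DPPC; the read-out is not stated. Compounds at 50 µM. Direction is inferred from retests: higher values go with more growth inhibition. About 69,000 compounds were tested under these conditions; 0.54% (about 370) showed 50% or more at least once.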

Results are given as percent effect.
How 0% and 100% were set is not recorded. Most values in the screen are low, and negative values occur.
Compounds were drawn at random from those tested, without regard to their results.
Two or more numbers in one place are separate tests of the same structure; such repeats can differ widely.

compound	Mtb glucose medium	Mtb cholesterol medium
CC(=O)NCc1nnc2n1CCN(c1ncnc3c(C)csc13)CC2	-45.87%	-44.78%
Cc1cccc(Nc2nccnc2C2CCCN(CC(=O)N(C)C)C2)n1 (stereo not drawn)	13.54%	16.61%
CC(C)CS(=O)(=O)N1CCC2(CN(c3ccsc3)C(=O)CN2C)C1.O=C(O)C(F)(F)F (stereo not drawn)	-6.27%	-12.23%
CC(O)CN1CCN(C(=O)c2cc3ccccc3c(=O)[nH]2)CC1 (stereo not drawn)	-3.255% & 10.19%	-2.904%
O=C(O)C(F)(F)F.O=C(O)C(F)(F)F.[H][C@@]12COC[C@]1(C(=O)NCc1ccccn1)CN(C1CCC1)C2	28.67%	25.32%
Cc1cccc2[nH]c(C3CCN(C(=O)c4c[nH]c(=O)[nH]c4=O)CC3)nc12	-9.465%	-7.868% & -11.58%
O=C(O)C(F)(F)F.O=C(O)C(F)(F)F.[H][C@@]12CCN(c3ncc(F)cn3)C[C@]1([H])O[C@H](C(=O)NCc1cccnc1)C2	15.95%	-11.95% & -8.453%
COc1ccc(C)cc1-n1cnnc1C1CC(=O)N(C)C1 (stereo not drawn)	36.12%	2.665%
CCOCCCNC(=O)CN(c1cc(C)cc(C)c1)S(C)(=O)=O	13.15%	-7.081%
O=C(NCc1ccc2c(c1)OCO2)c1ccc(N2CCCCC2)nn1	-23.24%	-15.73%
COc1c(C)cnc(CNC(=O)CCc2nc3ccccc3[nH]2)c1C	10.25%	7.523%
COc1ccc(-c2nc(CN3CC(n4cccn4)C3)no2)cc1	21.06%	-3.33%
O=C(O)C(F)(F)F.[H][C@]12C[C@@H](CN(C)C)N(CC3CC3)[C@@]1([H])CCN(C(=O)c1ccoc1)C2	-15.5%	4.666%
CC(C)CN1CCCn2nc(CNC(=O)OCc3ccccc3)cc2C1	7.261% & 17.29%	2.756%
COCCn1cc(C(=O)N2CCCC(n3cncn3)C2)ccc1=O (stereo not drawn)	18.02%	11.65%
COc1c(C2CCCN2C(=O)c2cccn2C)c(C)nn1C (stereo not drawn)	10.52%	-0.9304% & -17.5%
Cl.O=C(C1CCC1)N1CCC2(CCNCC2)C1	-30.15%	-19.14%
[H][C@]12CCN(C(=O)C3CCCO3)CC[C@@]1([H])S(=O)(=O)N(CC(=O)N(C)C)C2 (stereo partly drawn)	-18.5% & -3.578%	-4.376%
COc1cccc(CN2CCC(Cc3cnc(CN(C)C)cn3)CC2)c1	-3.05%	-4.106%
CC(=O)NCCNC(=O)c1nc(C2CC2)n(-c2ccccc2Cl)n1	-2.158% & -7.53%	-35.48%
NC(=O)Cc1ccc(OCc2noc(C(=O)N3CCCC3)n2)cc1	-13.6%	-25.8%
COC(C)(C)CC(C)NCc1cc(-c2ccco2)on1 (stereo not drawn)	-9.885%	-13.49%
Cc1ccc(C)c(C(=O)N2CCOC(CCN(C)C)C2)c1 (stereo not drawn)	1.946% & 17.45%	25.19%
Cc1cc(Cc2ccc(S(=O)(=O)N3CCCC3)cc2)c(=O)[nH]n1	-23.14%	-11.26%
Cc1nc(N(C)C)nc(C)c1NS(=O)(=O)c1ccccc1Cl	-12.37% & 5.419%	-6.27%
CC1CCC(NCCCN2CCOCC2)CC1 (stereo not drawn)	4.749%	-10.58%
COc1ccc(C(CNC(=O)c2c(C)noc2C)N(C)C)cc1 (stereo not drawn)	-4.714%	4.608%
Cc1noc2ncc(C(=O)N3CCCC(n4cccn4)C3)cc12 (stereo not drawn)	-4.763%	13.34%
COc1ccccc1-c1cc(C(F)(F)F)c2c(C)nn(CC(=O)O)c2n1	-10.99%	-17.26%
CSc1ncc(CN2CC(Oc3c(C)cccc3C)C2)cn1	-1.887%	-16.51%
CC(C)COCC(NC(=O)Cc1ccn[nH]1)c1ccco1 (stereo not drawn)	21.73%	18.48%
CC(Nc1cnn(C)c(=O)c1Cl)c1ccc(F)cc1 (stereo not drawn)	16.63%	29%
Cc1ccccc1C(CNc1ncnc2c1CCNCC2)N(C)C (stereo not drawn)	-0.1019%	-15.32% & -15.45%
Cc1cnccc1CN1Cc2ccccc2O[C@]2(CC[C@H](CO)CC2)C1	5.904%	-3.104%
O=C1CC2(CCSC2)C(=O)N1Cc1ncc(-c2ccccc2)o1 (stereo not drawn)	31.23% & 51.15%	19.83%
CC(C)OCCC(=O)Nc1cccc(N2CCN(CC3CC3)CC2)c1	13.86%	-21.84%
Cc1cnn(CC(=O)NCC2(O)CCCc3ccccc32)c1 (stereo not drawn)	-7.338%	3.621%
[H][C@@]12CC(=O)N(C)[C@@]1([H])CCN2S(=O)(=O)Cc1ccccc1	-8.323%	-6.709%
CCS(=O)(=O)N1CCc2c(COCc3ccncc3)cncc2C1	-36.6%	-8.614%
CC(=O)N1CCCC1c1nc(C)cc(-c2ccc(F)cc2)n1 (stereo not drawn)	13.13%	-2.356%
COc1ccccc1NC(=O)NCC(O)(c1ccccc1)C1CC1 (stereo not drawn)	-11.85% & 3.435%	-22.5%
COc1cccc(C(c2c(C)n[nH]c2O)c2c(C)n[nH]c2O)c1OC	-18.22% & -0.06142%	3.425%
CCCc1cc(NCc2cc(C)on2)n2nccc2n1	-8.251%	0.122%
O=C(c1cn(CC(=O)N2CCc3[nH]cnc3C2)c2ccccc12)C1CC1	19.14%	22.67%
NC(=O)C1CCN(c2nc3nccc(-c4ccncc4)c3c(=O)[nH]2)CC1	-51.59%	-18.33%
O=C(CCc1nccs1)N1CCC(N2CCNC2=O)CC1	-16.92% & -9.248%	-21.48%
COCC(C)N1CCc2onc(-c3ccc(C(F)(F)F)cc3)c2C1 (stereo not drawn)	-40.06% & -1.439%	-15.16%
Cc1ccc(-n2cc(S(=O)(=O)Nc3cccc(C(=O)O)c3C)cn2)cc1	8.744%	-14.29%
C[C@@H]1CN(c2nc(N)nc3c2CCC3)CC[C@@]1(O)C1CCC1	42.64%	33.15%
Cc1nnc(N2CCOC(CN(C)C)C2)c(C#N)c1C (stereo not drawn)	-4.285%	2.682%
CN(C)CCNC(=O)c1nc2c(s1)CCCN2C(=O)C1CC1.O=C(O)C(F)(F)F	13.22%	6.053%
NC(=O)c1csc(N2C[C@@H](CN3CCOCC3)[C@@H](CO)C2)n1	-22.45%	1.024%
CCn1cc(CN(C)C(=O)C(c2ccccc2C)N(C)C)cn1 (stereo not drawn)	7.122%	-9.979%
COc1ccc(C(=O)Nc2cnn(CCN3CCOCC3)c2)c(O)c1	4.064%	8.838%
CS(=O)(=O)CCC(=O)NC(c1ccc(F)cc1)C(F)(F)F (stereo not drawn)	31.05%	-13.19%
COc1ncc(C(=O)N2CCC3(CC2)C(=O)Nc2ccccc23)cn1	5.787% & 0.7799%	-9.257% & -5.213%
Cc1ccc(CN2CCN(C)c3ncccc3C2)o1	5.819%	-5.324%
c1ccc(CCN2CC(n3cccn3)C2)nc1	23.47%	5.589%
CCCc1cc(N2CCC(Cc3cccc(C(N)=O)c3)C2)nc(C)n1 (stereo not drawn)	-15.38%	-8.276%
[H][C@]12CCN(C(=O)c3ccoc3)[C@@]1([H])CC[C@H](COCc1ccncc1)O2	-0.3915%	0.4217%
COCCOc1ccc(NC(=O)C2CC(=O)N(C(C)C)C2)cn1 (stereo not drawn)	-42.55%	-54.24%
CCOC(=O)N1CC2(CCNCC2)c2cc(Cl)ccc21.Cl	25.69%	11.58% & 8.914%
CCCN1CCCn2nc(CNC(=O)CN(C)C3CCCC3)cc2C1	-3.117% & -6.246%	-2.032% & -21.2%
O=C1CC(c2cccs2)c2sc(C(=O)O)c(-c3ccccc3)c2N1 (stereo not drawn)	12.04%	-23.91%
Cn1cc(-c2nnn3c2COC(CNCc2ccncc2)C3)cn1 (stereo not drawn)	-8.303%	-15.49%
CC(O)CC(C)(C)CNC(=O)NCc1cccc(-n2cncn2)c1 (stereo not drawn)	17.49%	12.36%
CCN(CC(=O)NC(C)C)C(=O)c1ccc(-c2ccsc2)nc1C	15.39%	-1.438%
CC(C)c1nc(C2CCCN(C(=O)c3ccc4[nH]cnc4c3)C2)no1 (stereo not drawn)	4.481%	-9.692%
CCNC(=O)[C@@H]1C[C@H](N)CN1c1cc(C(F)(F)F)nc(N2CCCC2)n1	10.76% & 20.27%	3.773%
CN(C)Cc1nc(-n2cnc(C(=O)NCC3CC3)c2)n2ccccc12	25.35%	15.02%
CC(C)(C)OC(=O)NCC1CCN(C(=O)c2ccccc2O)CC1	0.249%	-1.146% & -1.224%
COc1ccc(C(=O)C2CCCN(Cc3ccncc3)C2)c(OC)c1 (stereo not drawn)	12.24%	6.157%
Cn1cnnc1C1CCN(C(=O)CCOc2ccc(Cl)cc2)CC1	-18.34%	-18.68%
Cc1cccc(OCCC(=O)N2CCN(S(=O)(=O)N(C)C)CC2)c1C	21.25%	5.552%
CCn1nc(C)c2ncnc(N3CCCC(C)C3)c21 (stereo not drawn)	21.45% & 26.99%	22.89%
Cc1nccn1-c1cncc(C2CCCN2Cc2cccnc2)n1 (stereo not drawn)	-16.96%	-9.805%
Cc1ccc(C2CN(C(=O)c3c(C)cc(C)[nH]c3=O)CCO2)c(C)c1 (stereo not drawn)	-11.11%	-11.28%
Cn1ncc2c1NC(=O)CC2c1cccs1 (stereo not drawn)	17.19%	2.509%
O=S(=O)(NCC1(O)CCOCC1)c1c(F)cccc1F	-19.93% & 5.709%	-5.595%
O=C(NCC1CC1)C1CN(C(=O)c2ccncc2)CC12CCOCC2 (stereo not drawn)	-5.61%	-9.877%
COCCCN1C(=O)c2ccc(C(=O)NCCc3c[nH]cn3)cc2C1=O	-2.015%	-23.31%
C[C@@H]1CN(Cc2ccco2)CCN1C(=O)Cc1ccccc1F	11.9%	3.28% & 5.178%

Some entries from above, unchanged:

compound,Mtb glucose medium,Mtb cholesterol medium
Cc1nccn1-c1cncc(C2CCCN2Cc2cccnc2)n1 (stereo not drawn),-16.96%,-9.805%
NC(=O)Cc1ccc(OCc2noc(C(=O)N3CCCC3)n2)cc1,-13.6%,-25.8%
COc1cccc(CN2CCC(Cc3cnc(CN(C)C)cn3)CC2)c1,-3.05%,-4.106%
CC(C)COCC(NC(=O)Cc1ccn[nH]1)c1ccco1 (stereo not drawn),21.73%,18.48%
CSc1ncc(CN2CC(Oc3c(C)cccc3C)C2)cn1,-1.887%,-16.51%
Cc1ccc(-n2cc(S(=O)(=O)Nc3cccc(C(=O)O)c3C)cn2)cc1,8.744%,-14.29%
CC(C)CS(=O)(=O)N1CCC2(CN(c3ccsc3)C(=O)CN2C)C1.O=C(O)C(F)(F)F (stereo not drawn),-6.27%,-12.23%
CCCc1cc(N2CCC(Cc3cccc(C(N)=O)c3)C2)nc(C)n1 (stereo not drawn),-15.38%,-8.276%
[H][C@]12CCN(C(=O)C3CCCO3)CC[C@@]1([H])S(=O)(=O)N(CC(=O)N(C)C)C2 (stereo partly drawn),-18.5% & -3.578%,-4.376%